Laboratory results: publication PMC12670160, “A drug-repurposing screen of FDA- and EMA-approved drugs identifies two NF-κB inhibitors active against eumycetoma” (Journal of Antimicrobial Chemotherapy, 2025)
Counter-ions that a name gives are not always drawn. Among all 5,300 compounds or so, about 130 (2.5%) showed an effect of 50% or more. Some of the results follow. Peptide text beside a SMILES is read from it.

system: M. mycetomatis strain mm55; conditions: primary screen, metabolic activity vs growth control; 96 h, 2 µM; inhibitor

In order of falling “% viability” value:
1. CSc1nc2cc(Cl)c(Oc3cccc(Cl)c3Cl)cc2[nH]1 [ONC0005286, triclabendazole]  152%
2. O=C(Nc1ccc(S(=O)(=O)Nc2ccccc2Cl)c(Cl)c1)c1ccccn1 [ONC0004481, vu 0364439]  151%
3. COC[C@H]1OC(=O)c2coc3c2[C@@]1(C)C1=C(C3=O)[C@@H]2CCC(=O)[C@@]2(C)C[C@H]1OC(C)=O [ONC0004466, wortmannin]  136.8%
4. Cc1onc(O)c1CC(N)C(=O)O (stereo not shown) [ONC0001795, ampars]  136.1%
5. CO[C@@H]1[C@H](OC(=O)/C=C/C=C/C=C/C=C/C(=O)O)CC[C@]2(CO2)[C@H]1[C@@]1(C)O[C@@H]1CC=C(C)C [ONC0005501, fumagillin]  131.3%
6. CC1=C(/C=C/C(C)=C/C=C/C(C)=C/CO)C(C)(C)CCC1 [ONC0000539, retinol]  128.1%
7. CC(=O)NCCCCCC(=O)O [ONC0003771, acexamicacid]  124.6%
8. CN(C)C(=O)n1nnnc1Cc1ccc(-c2ccccc2)cc1 [ONC0003593, ly2183240]  124.1%
9. Cc1ccc(=O)n(-c2ccc(O)cc2)c1 [ONC0004757, f351]  123%
10. NC(=O)c1cccc(-c2cccc(OC(=O)NC3CCCCC3)c2)c1 [ONC0005267, urb597]  122.4%
11. C[C@@H]([C@@H](O)c1ccc(O)cc1)N1CCC(O)(c2ccccc2)CC1 [ONC0002879, cp 101606]  121.9%
12. CC(C)C[C@H](NC(=O)N1CCCCCC1)C(=O)N[C@H](Cc1cn(C)c2ccccc12)C(=O)N[C@H](Cc1ccccn1)C(=O)O [ONC0001557, fr139317]  113.9%
13. Cc1ccccc1C(C(=O)NC1CCCCC1)N(C(=O)Cn1ccnc1C)c1cccc(F)c1 (stereo not shown) [ONC0005188, agi5198]  113.7%
14. CN(CCOP(=O)(O)O)C(=N)N [ONC0002764, 12hydroxyethyl1methylguanidine dihydrogen phosphate]  107.5%
15. Cc1nc2ccccn2c(=O)c1CCN1CCC(C(=O)c2ccc(F)cc2)CC1 [ONC0002968, pirenperone]  106.9%
16. COC(=O)/C=C/C(=O)OCCN1C(=O)CCC1=O [ONC0002732, 225dioxopyrrolidin1ylethyl methyl fumarate]  105.7%
17. O=C(O)c1ccc2cc(-c3ccc(O)c(C45CC6CC(CC(C6)C4)C5)c3)ccc2c1 [ONC0003137, cd437]  104.9%
18. CCCCC[C@H](O)/C=C/[C@H]1[C@H](O)CC(=O)[C@@H]1C/C=C\CCCC(=O)O [ONC0001297, dinoprostone]  104.7%
19. N#Cc1cc(CN2CCC(Nc3ncnc4sc(Cl)cc34)CC2)ccc1F [ONC0004391, prx08066 maleic acid]  100.9%
20. CCOc1cc(C(=O)Nc2ccc(Cl)c(-c3nc4ccccc4[nH]3)c2)cc(OCC)c1OCC [ONC0001541, sant2]  100.1%
21. Cc1ncc([N+](=O)[O-])n1CC(C)O (stereo not shown) [ONC0004221, secnidazole]  99.82%
22. Cc1ccc(-n2nc(C(C)(C)C)cc2NC(=O)NCc2cc(F)ccc2Oc2ccc3c(cnn3CCO)c2)cc1 [ONC0004396, pexmetinib arry614]  98.41%
23. NC(=O)c1cnccn1 [ONC0003400, pyrazinamide]  98.18%
24. C=C[C@H]1CN2CC[C@H]1C[C@H]2[C@H](O)c1ccnc2ccccc12 [ONC0003192, cinchonidine]  97.82%
25. C#Cc1cccc(Nc2ncnc3cc(OCCOC)c(OCCO)cc23)c1 [ONC0004975, osi420 desmethyl erlotinib]  96.97%
26. Oc1ccnc2cc(Cl)ccc12 [ONC0002982, chloroxoquinoline]  96.22%
27. O=C(CCNNC(=O)c1ccncc1)NCc1ccccc1 [ONC0005392, nialamide]  93.5%
28. FC(F)(F)c1cc(NC(=S)Nc2ccc(Br)cc2-c2nnn[nH]2)cc(C(F)(F)F)c1 [ONC0000117, ns11021]  92.01%
29. Cc1[nH]c(=O)c(C#N)cc1-c1ccc2nccn2c1 [ONC0001186, olprinone hydrochloride]  91.75%
30. COc1cc(/C=C2\CCCN([C@@H](C)c3ccc(F)cc3)C2=O)ccc1-n1cnc(C)c1 [ONC0001004, e 2012]  90.83%
31. O=C(O)c1ccc2nc(-c3cc(Cl)cc(Cl)c3)oc2c1 [ONC0001780, tafamidis]  89.74%
32. CN1[C@@H]2CC[C@H]1C[C@@H](OC(=O)N1Cc3ccccc3NC1=O)C2 [ONC0001606, dau5884]  89.33%
33. O=C(NC[C@H](O)CO)c1ccncc1Nc1ccc(I)cc1F [ONC0004877, pimasertib as703026]  86.19%
34. Cc1ccc(-c2ncc[nH]2)cc1NC(=O)c1ccc(OCc2ccccn2)cc1 [ONC0000045, az12080282]  85.65%
35. Cc1cnc(-c2ccccc2C(C)C)nc1NCc1ccc(-n2ccnn2)cc1 [ONC0001096, ml323]  85.22%
36. CCCCCCCC(=O)OCC(O)CO (stereo not shown) [ONC0005530, monoctanoin]  84.93%
37. OCCn1cc(-c2cnc3nnn(Cc4ccc5ncccc5c4)c3n2)cn1 [ONC0004674, pf04217903]  83.7%
38. Cc1ccc(C(=O)Nc2ccc(CN3CCN(C)CC3)c(C(F)(F)F)c2)cc1C#Cc1cnc2[nH]ncc2c1 [ONC0004398, gzd824 dimesylate]  83.54%
39. [H]/N=C(/N)c1ccc(NCc2nc3cc(C(=O)N(CCC(=O)O)c4ccccn4)ccc3n2C)cc1 [ONC0004940, bibr 953 dabigatran etexilate pradaxa]  81.22%
40. COc1c(-c2ccc3cc(NS(C)(=O)=O)ccc3c2)cc(-n2ccc(=O)[nH]c2=O)cc1C(C)(C)C [ONC0001775, dasabuvir]  79.59%
41. O=c1n(CCCN2CCN(c3cccc(Cl)c3)CC2)nc2ccccn12 [ONC0003101, trazodone hydrochloride]  79.17%
42. CC(C)(C)CC(C)(C)c1cc(Cc2cc(C(C)(C)CC(C)(C)C)cc(-n3nc4ccccc4n3)c2O)c(O)c(-n2nc3ccccc3n2)c1 [ONC0003873, bisoctrizole]  77.29%
43. CN(C(=O)Cc1ccc(Cl)c(Cl)c1)[C@H](CN1CCCC1)c1ccccc1 [ONC0003103, ici199441]  75.24%
44. CO[C@H]1C([C@@]2(C)O[C@@H]2CC=C(C)C)[C@]2(CC[C@H]1OC(=O)NC(=O)CCl)CO2 (stereo partly shown) [ONC0005524, tnp470]  75.23%
45. CC1(C)S[C@@H]2[C@H](NC(=O)[C@H](N)c3ccccc3)C(=O)N2[C@H]1C(=O)O [ONC0004272, ampicillin sodium]  71.12%
46. CC(=O)O[C@H]1C(=O)[C@@]2(C)[C@H]([C@H](OC(=O)c3ccccc3)[C@]3(O)C[C@H](OC(=O)[C@H](O)[C@@H](NC(=O)c4ccccc4)c4ccccc4)C(C)=C1C3(C)C)[C@]1(OC(C)=O)CO[C@@H]1C[C@@H]2O [ONC0000820, paclitaxel]  69.97%
47. Nc1ccc(-c2ccc3ncc4ccc(=O)n(-c5cccc(C(F)(F)F)c5)c4c3c2)cn1 [ONC0003069, torin2]  68.61%
48. O=C1[C@@H]2[C@H]3CC[C@H](C3)[C@@H]2C(=O)N1C[C@@H]1CCCC[C@H]1CN1CCN(c2nsc3ccccc23)CC1 [ONC0004569, lurasidone hcl]  68.59%
49. Cn1ncc2c(N3CCOCC3)nc(-c3cccc(O)c3)nc21 [ONC0000011, etp45658]  67.7%
50. O=C(O)c1cc(=O)[nH]c(=O)[nH]1 [ONC0003933, orotic acid]  67.23%
51. NCCCCCc1c[nH]cn1 [ONC0000200, impentamine]  65.77%
52. Cc1c(NC(=O)c2cc3c(s2)CCCC3)cccc1-c1cn(C)c(=O)c(Nc2ccc(C3C(=O)N(C)CCN3C)cc2)n1 (racemic) [ONC0000819, gdc0834 racemate]  65.58%
53. CC[C@H](CC#N)OC(=O)N[C@@H](C)c1cccc(NC(=O)Nc2ccc(-c3cnco3)c(OC)c2)c1 [ONC0000952, avn944]  63.71%
54. CCNCc1cc(C(C)(C)C)c(O)c(C(C)(C)C)c1 [ONC0003666, ly231617]  62.77%
55. Fc1ccccc1CNCc1ccc(-c2ccnc3[nH]ccc23)cc1 [ONC0003624, oxa06]  62.01%
56. Cn1cnc2c(F)c(Nc3ccc(Br)cc3F)c(C(=O)NOCCO)cc21 [ONC0004543, binimetinib mek162 arry162 arry438162]  60.57%
57. C[C@@H](O)[C@H](N)C(=O)N1CCC[C@H]1C(=O)N1CCC[C@H]1C(=O)N[C@H](C(N)=O)[C@@H](C)O [ONC0002215, rapastinel trifluoroacetate] (H-TPPT-NH2)  53.54%
58. CCCCn1c(=O)c2[nH]c(C34CC5CC(CC3C5)C4)nc2n(CCCO)c1=O [ONC0000224, psb36]  53.31%
59. C/C=C(/C(=C/C)c1ccc(O)cc1)c1ccc(O)cc1 [ONC0002147, dienestrol]  52.11%
60. C[C@H](O[C@H]1OCCN(Cc2n[nH]c(=O)[nH]2)[C@H]1c1ccc(F)cc1)c1cc(C(F)(F)F)cc(C(F)(F)F)c1 [ONC0004612, aprepitant mk0869]  34.22%
61. N#C/C(=C1/SCC(c2ccccc2Cl)S1)n1ccnc1 (stereo not shown) [Lanoconazole]  3.92%
